From patent publication EP0231622B1, “Inhibition of the 5-lipoxygenase pathway” (priority 1985, dated 1987)
Marks after values point to notes of the source that are not given here.

Legend:
[1] = system: Arachidonic Acid-Induced Inflammation of the Mouse Ear; assay: Arachidonic acid-induced mouse ear inflammation; format: in vivo, Balb/c mice; conditions: Table 7; 100 mg/kg, p.o.
Excerpt: (§1) In the following Examples where mice were used, they were male Balb/c mice (20-28 g), and where rats were used, they were male Lewis rats (180-210 g). All mice and rats were obtained from Charles River Breeding Laboratories, Kingston, N.Y. Within a single experiment, mice and rats were sex and age matched.
(§2) The compounds of Formula (IA) were used either as the free base or in the appropriate salt form. Levamisole was used as the hydrochloride salt. The compounds were homogenized in 0.5% tragacanth. Compounds were administered by gavage at the indicated dose in a final volume of 10 ml/kg. Nordihydroguaiaretic acid (NDGA) was solubilized in dimethylacetamide and diluted with olive oil for subcutaneous administration.
Arachidonic acid in acetone (2 mg/20 ul) was applied to the inner surface of the left ear. The thickness of both ears was then measured with a dial micrometer one hour after treatment, and the data were expressed as the change in thickness (10⁻³ cm) between treated and untreated ears.
Test compounds were given orally in 0.5% tragacanth at the times indicated in the text prior to the topical application of arachidonic acid.
Parenteral administration of compound was accomplished by subcutaneous injection of solution as indicated.

[2] = system: Polymorphonuclear Leukocytes; assay: Mouse Carrageenan Peritonitis (PMN infiltration); format: in vivo, Balb/c mice; conditions: Table 3; 100 mg/kg, p.o.
Excerpt: as §1, §2
Mice were pretreated with either the test compound or vehicle one hour before the intraperitoneal injection of a 1.0% carrageenan suspension in saline (0.2 ml/ mouse). Mice were sacrificed by cervical dislocation two hours after injection, and 3.0 ml of phosphate buffered saline, without Ca⁺⁺ or Mg⁺⁺, was injected into the peritoneum. Following massage, a 2.0 ml aliquot of the lavage fluid was removed, and the total cell count determined on a Coulter counter and differential cell count determined by microscopic examination of Giesma-stained slides.

COc1ccc2cc([C@H](C)C(=O)O)ccc2c1 [Naproxen]
Increase in Ear Thickness at 1 Hour (x 10⁻³ cm) [1]: 26.4 ± 2.6 x 10⁻³ cm
% Change [2]: -11^b %
PMN x 10⁻⁵/ml (Mean ± S.D.) [2]: 10.28 ± 2.49 x 10⁻⁵/ml
